Assay results from patent publication US20180037903A1, “METHODS AND MEANS FOR INCREASING STRESS TOLERANCE AND BIOMASS IN PLANTS” (THE UNIVERSITY COURT OF THE UNIVERSITY OF GLASGOW, priority 2013, published 2018).
No constants are given. Whether binding was seen depends on the method and setting. For some assays here: Sequences can lack the tags named with a protein.

B1: native HDC1 from nuclei-enriched protein samples of A. thaliana wildtype plants (protein)
chain: MSGVPKRSHEEGVTHPSSSSSVAKYPHEDSGSYPKSPHQPVTPPPAQVHHNHQQPHQHPQSQSQSQPQPHLQALPHPHSHSHSHSPLAAAASASAPYEVESRTVVKVARSEPRDGERRSPLPLVYRSPSLPTTVSSSDPHLTHAPVPMEPRDGAKDGREIRVESRENRSDGREIYGETKREIQGPKGDRDVKFERSVDDFSGKGNTGSYTRNDGREMYGETKREIQGPKSDRDAKFERPGDDFSGKSNAGSYTRDTKFDRENQNYNEQKGEIKMEKEGHAHLAWKEQKDYHRGKRVAEGSTANVDPWVVSRGNPQGPTEVGPKDLSAPVEGSHLEGRETVGENKVDAKNEDRFKEKDKKRKELKHREWGDRDKDRNDRRVSVLVGSVMSEPKEIGREERESDRWERERMEQKDRERNKEKDKDHIKREPRTGAEKEISQNEKELGEASAKPSEQEYVAPEQKKQNEPDNCEKDERETKEKRRERDGDSEAERAEKRSRISEKESEDGCLEGEGATEREKDAFNYGVQQRKRALRPRGSPQTTNRDNVRSRSQDNEGVQGKSEVSIVVYKVGECMQELIKLWKEYDLSHPDKSGDFANNGPTLEVRIPAEHVTATNRQVRGGQLWGTDIYTDDSDLVAVLMHTGYCRPTASPPPPTMQELRTTIRVLPSQDYYTSKLRNNVRSRAWGAGIGCSYRVERCYILKKGGGTIELEPSLTHSSTVEPTLAPMAVERSMTTRAAASNALRQQRFVREVTIQYNLCNEPWIKYSISIVADKGLKKPLFTSARLKKGEVLYLETHSCRYELCFAGEKTIKAIQASQQQSSHEAMETDNNNNKSQNHLTNGDKTDSDNSLIDVFRWSRCKKPLPQKLMRSIGFPLPADHIEVLEENLDWEDVQWSQTGVWIAGKEYTLARVHFLSPN
B2: recombinant HDC1-His (protein, not shown: small tags and cut ends)
chain: B1 chain

Assays:
GST alone [1] = experiment: GST pull-down from nuclei-enriched A. thaliana protein samples, anti-HDC1 Western blot
GST alone [2] = experiment: in-vitro GST pull-down of recombinant HDC1-His, anti-His Western blot

Binder | binding (GST alone [1]) | binding (GST alone [2])
B1 | no binding | –
B2 | – | no binding
